Hit rate of the full screen: of about 330,000 compounds, about 7,700 (2.3%) were called active. The inconclusive results got no clear call from the source; some entries with a clear call stand among them for comparison. The call rests on the fitted dose curve; in most records, active means well fitted inhibition curve with a large enough effect; inconclusive means small, poorly fitted or top-dose-only effect, or effect the other way; inactive means flat fitted curve, though single readings scatter. Potencies beside an inconclusive call are fits to weak or partial responses and may not hold up.
assay: qHTS screen for small molecules that inhibit ELG1-dependent DNA repair in human embryonic kidney (HEK293T) cells expressing luciferase-tagged ELG1; conditions: HEK293T ELG1-luciferase reporter, luminescence, 16 h, DNA damage induced by 5-fluorouridine; series mostly up to 46.1 µM; further: nearly all actives have a fitted effect of over 55% in size
In short: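 Cells (2,000 per well) received 5-fluorouridine plus test compound or DMSO and were incubated 16 hr at 37 °C, 5% CO2. Luciferase activity was read by luminescence 30 min after ONE-Glo addition; signal suppression marked inhibition of damage-induced ELG1 function.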
Potency means the concentration at half of the fitted maximal effect.

| Structure (SMILES) | Potency |
| --- | --- |
| O=C(/C=C/c1ccc2c(c1)OCO2)NCCSCc1cccc(Cl)c1 | inactive |
| CN(C(=O)Nc1ccc(Cl)cc1Cl)C1CCCC1 | inconclusive: 20.6 µM [activator, partial curve] |
| O=C(Nc1ccccc1C(F)(F)F)c1cnccn1 | inconclusive: 20.6 µM [activator, partial curve, poor fit] |
| Cc1cccc(OCC(=O)NC(=S)Nc2ccccc2N2CCOCC2)c1 | inactive |
| c1ccc(-c2noc(CCC3CCCC3)n2)cc1 | inconclusive: 20.6 µM [activator, single point] |
| CC(C)c1c(C(=O)N/N=C/c2cccc(OCc3ccc(F)cc3)c2)nnn1-c1nonc1N | inconclusive: 29.1 µM [inhibitor, single point] |
| CSc1cccc(NC(=O)NCc2cccc(CNC(=O)Nc3cccc(SC)c3)c2)c1 | inactive |
| Cc1nc(-c2cccc(Cl)c2)n[nH]1 | inconclusive: 29.1 µM [activator, single point] |
| O=C1C(C2=NC(c3ccccn3)C3C(=O)N(c4ccc(OC(F)(F)F)cc4)C(=O)C23)=C(O)c2ccccc21 (configuration not stated) | inconclusive: 7.3 µM [inhibitor, partial curve] |
| CCOC(=O)c1c(CN(C)C)oc2cc(CN(C)C)c(O)c(CSc3ccccc3)c12 | inactive |
| COc1ccc(C(=O)NC2=NCCS2)c(OC)c1 | inconclusive: 5.17 µM [activator, partial curve] |
| Cc1nc2ccc(NC(=S)NCc3ccccc3)cc2nc1C | inconclusive: 8.2 µM [activator, partial curve, poor fit] |
| COc1ccc(-c2cc(C(F)(F)F)nc(SCC(=O)NCc3cccs3)n2)cc1 | inconclusive: 32.6 µM [inhibitor, single point] |
| COc1ccc(S(=O)(=O)Oc2ccc3ccccc3c2)cc1 | inconclusive: 11.6 µM [activator, single point] |
| CN1CCC(C2(O)c3ccccc3CCc3ccccc32)CC1 | inconclusive: 18.4 µM [activator, partial curve, poor fit] |
| CCCCNC(=O)CNC(=S)N(Cc1ccc(C)cc1)Cc1ccco1 | inconclusive: 29.1 µM [inhibitor, single point] |
| O=S(=O)(Nc1ccc(O)c(Sc2nc3ccccc3s2)c1)c1cccc2ccccc12 | inconclusive: 20.6 µM [inhibitor, partial curve, poor fit] |
| CCOc1ccccc1OCCC(=O)NNC(=O)Cn1nc(C)cc1C | inactive |
| COc1ccc2cc(C(=O)C3CCCN(Cc4cnc(C)s4)C3)ccc2c1 (configuration not stated) | inactive |
| Cc1ccc(S(=O)(=O)N(C)C[C@@H]2Oc3ccc(NC(=O)CCC(F)(F)F)cc3CC(=O)N([C@@H](C)CO)C[C@@H]2C)cc1 | inactive |
| O=c1c2ccccc2oc2nc(C3CCCCC3)n(Cc3ccco3)c(=O)c12 | inconclusive: 14.1 µM [activator, single point] |

A second format for 11 compounds above:
Structure (SMILES)	Potency
O=C(/C=C/c1ccc2c(c1)OCO2)NCCSCc1cccc(Cl)c1	inactive
O=C(Nc1ccccc1C(F)(F)F)c1cnccn1	inconclusive: 20.6 µM [activator, partial curve, poor fit]
Cc1cccc(OCC(=O)NC(=S)Nc2ccccc2N2CCOCC2)c1	inactive
CC(C)c1c(C(=O)N/N=C/c2cccc(OCc3ccc(F)cc3)c2)nnn1-c1nonc1N	inconclusive: 29.1 µM [inhibitor, single point]
CSc1cccc(NC(=O)NCc2cccc(CNC(=O)Nc3cccc(SC)c3)c2)c1	inactive
Cc1nc(-c2cccc(Cl)c2)n[nH]1	inconclusive: 29.1 µM [activator, single point]
COc1ccc(-c2cc(C(F)(F)F)nc(SCC(=O)NCc3cccs3)n2)cc1	inconclusive: 32.6 µM [inhibitor, single point]
CN1CCC(C2(O)c3ccccc3CCc3ccccc32)CC1	inconclusive: 18.4 µM [activator, partial curve, poor fit]
CCCCNC(=O)CNC(=S)N(Cc1ccc(C)cc1)Cc1ccco1	inconclusive: 29.1 µM [inhibitor, single point]
COc1ccc2cc(C(=O)C3CCCN(Cc4cnc(C)s4)C3)ccc2c1 (configuration not stated)	inactive
O=c1c2ccccc2oc2nc(C3CCCCC3)n(Cc3ccco3)c(=O)c12	inconclusive: 14.1 µM [activator, single point]

Following part.

| Structure (SMILES) | Potency |
| --- | --- |
| O=C(/C=C/c1cccs1)N1CCC2(CC1)Oc1ccc(Cl)cc1C(=O)C21CC(c2cccnc2)=NO1 (configuration not stated) | inconclusive: 14.6 µM [inhibitor, partial curve] |
| O=C1c2ccccc2-c2nc3ccccc3cc21 | inconclusive: 7.3 µM [activator, partial curve] |
| COc1ccccc1OCCOCCOc1ccc(C)cc1[N+](=O)[O-] | inconclusive: 25.9 µM [activator, partial curve, poor fit] |
| Cc1cc(NC(=O)c2cn(C3CCCCC3)c(=O)c3c2c2ccccc2n3C)no1 | inconclusive: 29.1 µM [inhibitor, single point] |
| Cc1cccc2nc(-c3cccc(NC(=O)c4ccc(Cl)cc4)c3)cn12 | inconclusive: 29.1 µM [inhibitor, single point] |
| CN(C)CCNc1ncnc2c1sc1nc(N3CCCC3)c3c(c12)CC(C)(C)OC3 | inconclusive: 16.4 µM [inhibitor, partial curve, poor fit] |
| COCCNC(=O)CSc1cc(=O)n(C)c2cc(Cl)ccc12 | inconclusive: 23.1 µM [activator, single point] |
| O=C(CCSc1ccc(Cl)cc1)N1CCN(c2ncccn2)CC1 | inconclusive: 16.4 µM [activator, partial curve] |
| O=C(CSCC(=O)NC1CC1)Nc1ccc2ccccc2c1 | inconclusive: 32.6 µM [activator, single point] |
| COc1cccc2sc3cc(C#CC4(O)CCCCC4)ccc3c(=O)c12 | inconclusive: 1.3 µM [activator, partial curve] |
| Cc1ccc(C(=O)NNC(=O)c2nn(-c3ccc(F)cc3)ccc2=O)cc1 | inactive |
| O=C(NCc1ccccc1)c1ccc2c(c1)C(=O)N(Cc1cccnc1)C2=O | inactive |
| COc1ccc(-c2cc(=O)c3c(O)cc(OC4OC(COC5OC(C)C(O)C(O)C5O)C(O)C(O)C4O)cc3o2)cc1O (configuration not stated) | inconclusive: 16.4 µM [activator, partial curve, poor fit] |
| Cc1ccc2[nH]c(=O)c(C(c3nnnn3C3CCCC3)N(Cc3cccnc3)Cc3ccco3)cc2c1 (configuration not stated) | inconclusive: 3.66 µM [inhibitor, partial curve] |
| COCCNC(=O)c1ccc2c(c1)nc(C)n2-c1cccc(F)c1 | inconclusive: 6.51 µM [activator, partial curve, poor fit] |
| CCCCCCCCCCOC(=O)C[N+](C)(C)C/C=C(/C)Cl | inactive |
| Cc1cccn2c(/C=N/OCc3cccc(F)c3)c(-c3ccc(Cl)cc3)nc12 | inactive |
| CC(NC(=O)CN(c1cccc(C(F)(F)F)c1)S(=O)(=O)c1ccc(Cl)c([N+](=O)[O-])c1)c1ccccc1 (configuration not stated) | inconclusive: 29.1 µM [inhibitor, single point] |
| Cc1ccc(/C=N\NC(=O)C2CN(S(=O)(=O)c3ccccc3)CCN2S(=O)(=O)c2ccccc2)cc1 (configuration not stated) | inactive |
| CCCN1C(=O)/C(=C/c2ccco2)SC1=Nc1ccc(OC)cc1 | inconclusive: 18.4 µM [inhibitor, partial curve] |
| O=C(Oc1ccc(-c2cnc3ccccc3n2)cc1)c1cc([N+](=O)[O-])ccc1Cl | inconclusive: 6.51 µM [activator, single point] |

From PubChem BioAssay AID504467 (National Center for Advancing Translational Sciences (NCATS), 2011)
